Source: paper PMC4866751, “Bacillus licheniformis Contains Two More PerR-Like Proteins in Addition to PerR, Fur, and Zur Orthologues” (PLoS ONE, 2016)
No constants are given. Whether binding was seen depends on the method and setting. Sequences can lack the tags named with a protein.

Target: His-tagged PerR3 (BL00950) (Bacillus licheniformis ATCC14580) (UniProt Q65DD7)
Experiment: SEC; Superdex 200 HiLoad 16/60 gel filtration, Chelex-100-treated buffer A (20 mM Tris-HCl, pH 8.0, 0.1 M NaCl, 5% glycerol); oligomeric state judged by elution profile in the last purification step; both purified

binding: no binding
B1: His-tagged PerR3 (BL00950) (protein, UniProt Q65DD7 1-138)
chain: MEDEQLVPLLKKRGLRITAQRVLILKTIASLGGHPSAEDIHRELPYMSLPTIYSNLKLFVKLGILKELSHGDAKSKYELFTSQHYHVICKSCGKIADLDYPHLKEVEHAAAQLTNFKVNSHFLGIYGICTTCQEQQQR
